The campaign covered roughly 340,000 compounds. About 6,200 (1.8%) were called active. Inconclusive means that the source gave no clear call. Such entries were picked first, then a sample of the others. Calls come from the whole dose curve; as a rule, active = well fitted activation curve with a large enough effect; inconclusive = small, poorly fitted or top-dose-only effect; inactive = no such curve, though single readings can be large or run the other way. A potency beside an inconclusive call is a rough fit, not a confirmed value.
experiment: A quantitative high throughput screen for small molecules that induce DNA re-replication in SW480 colon adenocarcinoma cells.; note: nearly all actives have a fitted effect of over 55% in size; for re-replication activation: % of control where 0% means no effect; details: Hoechst DNA content imaging, 48 h; re-replication activation: at 46.1 µM (top of the series) unless noted
Outline: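 Quantitative HTS format with DMSO vehicle controls; 48 hr drug incubation at 37 C, then 40 min Hoechst staining and scanning imager measurement at 405 nm excitation.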
Potency is the fitted concentration of half-maximal effect.

Row | SMILES | Potency | re-replication activation
1 | COc1ccc(SC[C@H](Cc2ccccc2)N2CC[C@@H](NC(=O)OCc3ccccc3)CCC2=O)cc1 | inconclusive: 23.1 µM [activator, single point] | 
2 | CCCCCCNC(=O)c1cn(CC)c2cc(N3CCN(C)CC3)c(F)cc2c1=O | inconclusive: 29.1 µM [activator, single point] | 
3 | Cc1cc(C(=O)Nc2ccc(Cl)cc2)c(C)n1Cc1cccs1 | inconclusive: 9.2 µM [activator, partial curve, poor fit] | 
4 | CC(C)(C)C(=O)CSc1nc2c(c(-c3cccs3)c1C#N)CCC2 | inconclusive: 29.1 µM [activator, single point] | 
5 | CSCCC(NS(=O)(=O)c1cccc(C(F)(F)F)c1)C(=O)Nc1ccccc1N1CCCC1 (stereo not drawn) | inconclusive: 18.4 µM [activator, partial curve, poor fit] | 
6 | COc1ccccc1-c1csc2ncnc(Sc3nnnn3C)c12 | inconclusive: 18.4 µM [activator, single point] | 
7 | COc1ccccc1CNC(=O)C1(c2ccc(Cl)cc2)CC1 | inconclusive: 4.61 µM [activator, full curve, poor fit] | 
8 | COc1ccc(Nc2nc(Cl)nc(NCc3ccco3)n2)c(OC)c1 |  | inactive: 0.278%
9 | O=C(NN=C1c2ccccc2-c2ccccc21)c1ccccc1 | inconclusive: 29.1 µM [activator, single point] | 
10 | COc1ccc(Nc2ncc(C(=O)N3CCN(Cc4ccccc4)CC3)c3ccccc23)cc1 |  | inactive: 17.9%
11 | CC(=O)Nc1ccc(C(=O)N/N=C/c2ccccc2OCc2ccccc2)cc1 | inconclusive: 29.1 µM [activator, single point] | 
12 | COc1cccc(N2CCN(C(=S)Nc3ccccc3)CC2)c1 |  | inactive: -7.94% [at 9.22 µM]
13 | Cc1ccc(S(=O)(=O)N2CCCCC2)cc1NC(=O)CCNC(=O)c1ccc([N+](=O)[O-])cc1 | inconclusive: 16.4 µM [activator, single point] | 
14 | COc1ccc(OCC(=O)N/N=C2\CCCCc3ccccc32)cc1 | inconclusive: 29.1 µM [activator, single point] | 
15 | Cc1n[nH]c(=O)c2c(NC(=O)COC(=O)c3cc(F)cc(F)c3)oc(C)c12 | inconclusive: 0.731 µM [activator, full curve, poor fit] | 
16 | COc1ccc(-c2[nH]ncc2CN2CCN(Cc3cccs3)CC2)cc1F |  | inactive: 4.06%
17 | COc1ccccc1C(=O)Nc1ccc2c(c1)CN(Cc1cnc(C)s1)CC2 |  | inactive: 0.655%
18 | Cc1ccc(-c2c(C(=O)NCc3ccccc3)oc(=O)c3ccccc23)cc1 |  | inactive: -2.23%
19 | CCOC(=O)/C(C#N)=C/C=C1/C=CC=CN1C |  | inactive: -3.3%
20 | COC(=O)c1cc(NC(=O)Cn2nc(C)n3cccc3c2=O)cc(C(=O)OC)c1 | inconclusive: 1.46 µM [activator, full curve, poor fit] | 
21 | O=C(O)C(c1ccccc1)N1C(=O)/C(=C\c2ccc(-c3ccc(Br)cc3)o2)SC1=S (stereo not drawn) |  | inactive: -2.7%
22 | CCCNC(=O)c1onc(CSc2ccc(F)cc2)c1C(=O)NCCC | inconclusive: 2.59 µM [activator, partial curve, poor fit] | 
23 | COc1ccc(-c2cccc(NS(=O)(=O)c3cccc([N+](=O)[O-])c3)c2)nn1 | inconclusive: 1.84 µM [activator, full curve, poor fit] | 

Six structures out of the list, sorted by heavy-atom count, falling:
Row | SMILES | Potency | re-replication activation
2 | CCCCCCNC(=O)c1cn(CC)c2cc(N3CCN(C)CC3)c(F)cc2c1=O | inconclusive: 29.1 µM [activator, single point] | 
17 | COc1ccccc1C(=O)Nc1ccc2c(c1)CN(Cc1cnc(C)s1)CC2 |  | inactive: 0.655%
16 | COc1ccc(-c2[nH]ncc2CN2CCN(Cc3cccs3)CC2)cc1F |  | inactive: 4.06%
6 | COc1ccccc1-c1csc2ncnc(Sc3nnnn3C)c12 | inconclusive: 18.4 µM [activator, single point] | 
7 | COc1ccccc1CNC(=O)C1(c2ccc(Cl)cc2)CC1 | inconclusive: 4.61 µM [activator, full curve, poor fit] | 
19 | CCOC(=O)/C(C#N)=C/C=C1/C=CC=CN1C |  | inactive: -3.3%

The results go on.

Row | SMILES | Potency | re-replication activation
24 | COc1ccc(CNC(=O)C(C#N)c2nc3ccccc3nc2N2CCCC2)cc1 (stereo not drawn) | inconclusive: 18.4 µM [activator, single point] | 
25 | COc1ccc(CN2CCN(Cc3nc4ccccc4s3)CC2CCO)c(C)c1C (stereo not drawn) |  | inactive: 7.74%
26 | Cc1nccn1CCc1n[nH]c(=S)n1Cc1ccccc1 |  | inactive: -7.34%
27 | Cc1c(Cl)cccc1NC(CC(=O)c1ccccc1)C(=O)O (stereo not drawn) | inconclusive: 29.1 µM [activator, single point] | 
28 | Cc1ccc(C(=O)NCCCNC(=O)COc2ccc(Cl)cc2)cn1 | inconclusive: 5.17 µM [activator, full curve, poor fit] | 
29 | O=C(NCc1ccccc1)C1(c2cccc(F)c2)CCCC1 | inconclusive: 0.103 µM [activator, full curve, poor fit] | 
30 | COc1ccc(C2CC(=O)C=C(NCc3ccccc3)C2)cc1 (stereo not drawn) | inconclusive: 18.4 µM [activator, single point] | 
31 | CN(C)CCCN(C(=O)c1ccc2c(c1)CCCC2)c1nc2c(F)cccc2s1 | inconclusive: 29.1 µM [activator, single point] | 
32 | O=C(NCCC(=O)N1CCC2(CC1)NCCc1[nH]cnc12)c1cccc(Br)c1 |  | inactive: -2.15%
33 | O=C(Cc1coc2ccc3ccccc3c12)Nc1nnc(C2CC2)s1 | inconclusive: 23.1 µM [activator, single point] | 
34 | NS(=O)(=O)c1ccc(-c2ccc(/C=C3\NC(=S)NC3=O)o2)cc1 |  | inactive: 2.6%
35 | COc1ccc(Nc2nc3ccc(C)cn3c(=O)c2/C=N/O)cc1 |  | inactive: 1.7%
36 | CS(=O)(=O)NCCn1ccc2ccccc21 | inconclusive: 20.6 µM [activator, partial curve, poor fit] | 
37 | Cc1onc(-c2ccccc2)c1CNC(=O)Nc1cccc(Cl)c1 |  | inactive: 1.89%
38 | O=C(/C=C/c1cccnc1)c1ccc(F)c(F)c1 | inconclusive: 25.9 µM [activator, single point] | 
39 | Cc1nc2c(-c3ccc(F)cc3)c(C)nn2c(N2CCOCC2)c1C | inconclusive: 20.6 µM [activator, partial curve, poor fit] | 
40 | CC(=O)C1C(=O)CC(C)(O)C(C(C)=O)C1c1ccccc1 (stereo not drawn) | inconclusive: 7.31 µM [activator, partial curve, poor fit] | 
41 | Cc1cc(C)c(C#N)c(SCC(=O)CC(=O)OC(C)C)n1 |  | inactive: -3.78%
42 | CC1CCN(C(=O)c2ccc(S(=O)(=O)Cc3cccc(F)c3)c([N+](=O)[O-])c2)CC1 | inconclusive: 29.1 µM [activator, single point] | 
43 | Cc1ccc(S(=O)(=O)c2cc3ccc(O)cc3oc2=O)cc1C | active: 2.31 µM | 
44 | CCOc1ccc(S(=O)(=O)n2cnc(C)c2)cc1 |  | inconclusive: 38.4% [activator]
45 | COc1ccc(OC)c(Nc2cc(C(=O)NCCCN3CCOCC3)c3ccccc3n2)c1 |  | inactive: 7.55%
46 | COc1cccc(/C=C2\SC(=S)N(CCC(=O)NCCc3ccc(O)cc3)C2=O)c1 | inconclusive: 14.6 µM [activator, single point] | 

Row | SMILES | Potency | re-replication activation
47 | O=[N+]([O-])c1cc([N+](=O)[O-])c2c(=Nc3ccccc3)n(-c3ccccc3)n(O)c2c1 | inconclusive: 29.1 µM [activator, single point] | 
48 | c1cncc(-c2nc(N3CCOCC3)c3c4c(sc3n2)CCC4)c1 |  | inactive: -0.484%
49 | COc1ccc2c(=O)c3c(=O)n(CCc4ccccc4)c(C)nc3oc2c1 | inconclusive: 3.66 µM [activator, single point] | 
50 | O=C(CCl)N(O)c1ccc(C=Cc2ccccc2)cc1 | inconclusive: 18.4 µM [activator, single point] | 
51 | CCOC(=O)c1cc(-c2ccccc2)nc2c1c(C)nn2-c1ccccn1 | inconclusive: 3.66 µM [activator, full curve] | 
52 | COc1ccc(/C=N\NS(=O)(=O)c2ccc(Br)cc2)cc1COc1ccccc1[N+](=O)[O-] | inconclusive: 0.562 µM [activator, partial curve, poor fit] | 
53 | CCN(CC(=O)Nc1c(F)cccc1F)C(=O)CSc1nnc(-c2ccco2)n1CC | inconclusive: 16.4 µM [activator, single point] | 
54 | COCCNC(=O)Nc1ccc2nc(-c3cccs3)c(-c3cccs3)nc2c1 | inconclusive: 18.4 µM [activator, single point] | 
55 | Cc1ccc(NC(=O)CN(C)CCOc2ccccc2)c([N+](=O)[O-])c1 | inconclusive: 25.9 µM [activator, single point] | 
56 | Cc1ccc(CNC(=O)C2CCN(C(=O)Nc3ccccc3)CC2)cc1 |  | inactive: 15.1%
57 | CCOc1ccc(NS(=O)(=O)c2ccc(C(=O)NCC3(N(C)C)CCCCC3)cc2)cc1 | inconclusive: 29.1 µM [activator, single point] | 
58 | COc1ccc(S(=O)(=O)Cc2ccc(C(=O)N3CCN(c4cccc(C)c4C)CC3)o2)cc1 | active: 20.6 µM | 
59 | CCC(C#CCN1CCCCC1)(CC)OCCC#N |  | inactive: -6.38%
60 | COc1cccc(NC(=O)CN(C)C(=O)c2c(C)nn(CC(C)C)c2Cl)c1 |  | inactive: -2.33%
61 | COc1ccc(C2C=C(c3ccc(F)cc3)NC(=S)N2)cc1OC (stereo not drawn) | inconclusive: 18.4 µM [activator, single point] | 
62 | COc1ccc(CN2CCNC(=O)C2CC(=O)NCCc2nc(C)c3c(n2)CCC3)cc1C (stereo not drawn) | inconclusive: 29.1 µM [activator, single point] | 
63 | Cc1cc(C)c(S(=O)(=O)N(C)CC(=O)NCCCn2ccnc2)c(C)c1 | inconclusive: 32.6 µM [activator, partial curve, poor fit] | 
64 | CCCCc1ccc(-c2csc(/C(C#N)=C\c3ccco3)n2)cc1 | inconclusive: 4.61 µM [activator, full curve, poor fit] | 
65 | COCCN(C(=O)CSc1nnc(-c2ccc(C)cc2)n1N)c1c(N)n(Cc2ccccc2)c(=O)[nH]c1=O |  | inactive: -3.03%
66 | CC1(CCC(=O)O)C(=O)CCC2C1CCC1(C)C2CCC1(C)O (stereo not drawn) |  | inactive: -1.45%
67 | CCCCc1cc(=O)oc2c(CN3CCCC3)c(O)c(Cl)cc12 | inconclusive: 16.4 µM [activator, partial curve, poor fit] | 
68 | CCOC(=O)[C@H]1[C@H]2COc3ccc(C)cc3[C@@H]2N2C(=O)c3cc(F)ccc3NC(=O)[C@@]12C |  | inactive: 2.33%
